Data source: PubChem BioAssay AID743121 (NCATS, 2013)
The deposit covers about 26,000 reagents; below is an unselected part. In the full data, 167 (0.63%) got an active call. 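Calls are per gene from RSA p-values that are not deposited; an individual active-marked siRNA can sensitise only weakly.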 The numbers tell different reagents against one gene apart. Further read-outs or replicates are left out here.

Test: 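Knock-downs that sensitise breast cancer cells to camptothecin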 (primary screen)
Cells: MDA-MB-231 cells, a human breast cancer line
Reagent: single siRNA against human genes, 20 nM siRNA (0.8 pmol per well)
Time to read-out: 120 h (drug added 48 h after transfection, read 72 h later)
Challenge: camptothecin 20 nM (about EC30) for 72 h; vehicle 0.1% DMSO in parallel plates
Measurement: 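Cell viability by ATP luminescence (CellTiter-Glo) as % of non-targeting siRNA wells, and the log2 ratio of viability without drug over viability with camptothecin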
Scale: log2 vehicle/camptothecin viability: higher = stronger sensitisation to camptothecin
Call rule: 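Active genes have an RSA gene-level p-value below 0.001, computed from the ratios of their separate siRNAs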

{"target gene": "DUSP26 (GeneID 78986)", "reagent no.": 1, "log2 vehicle/camptothecin viability": -0.161, "Outcome": "inactive"}
{"target gene": "DUSP26 (GeneID 78986)", "reagent no.": 2, "log2 vehicle/camptothecin viability": -0.113, "Outcome": "inactive"}
{"target gene": "DUSP26 (GeneID 78986)", "reagent no.": 3, "log2 vehicle/camptothecin viability": -0.5, "Outcome": "inactive"}
{"target gene": "DUSP26 (GeneID 78986)", "reagent no.": 4, "log2 vehicle/camptothecin viability": 0.0246, "Outcome": "inactive"}
{"target gene": "FBXL3 (GeneID 26224)", "reagent no.": 1, "log2 vehicle/camptothecin viability": -0.00146, "Outcome": "inactive"}
{"target gene": "FBXL3 (GeneID 26224)", "reagent no.": 2, "log2 vehicle/camptothecin viability": -0.372, "Outcome": "inactive"}
{"target gene": "FBXL3 (GeneID 26224)", "reagent no.": 3, "log2 vehicle/camptothecin viability": 0.625, "Outcome": "inactive"}
{"target gene": "FBXL3 (GeneID 26224)", "reagent no.": 4, "log2 vehicle/camptothecin viability": -0.209, "Outcome": "inactive"}
{"target gene": "SORBS1 (GeneID 10580)", "reagent no.": 1, "log2 vehicle/camptothecin viability": -0.19, "Outcome": "inactive"}
{"target gene": "SORBS1 (GeneID 10580)", "reagent no.": 2, "log2 vehicle/camptothecin viability": 0.287, "Outcome": "inactive"}
{"target gene": "SORBS1 (GeneID 10580)", "reagent no.": 3, "log2 vehicle/camptothecin viability": -0.0434, "Outcome": "inactive"}
{"target gene": "RASSF1 (GeneID 11186)", "reagent no.": 1, "log2 vehicle/camptothecin viability": -0.243, "Outcome": "inactive"}
{"target gene": "RASSF1 (GeneID 11186)", "reagent no.": 2, "log2 vehicle/camptothecin viability": -0.244, "Outcome": "inactive"}
{"target gene": "RASSF1 (GeneID 11186)", "reagent no.": 3, "log2 vehicle/camptothecin viability": 0.13, "Outcome": "inactive"}
{"target gene": "RASSF1 (GeneID 11186)", "reagent no.": 4, "log2 vehicle/camptothecin viability": -0.522, "Outcome": "inactive"}
{"target gene": "RNF220 (GeneID 55182)", "reagent no.": 1, "log2 vehicle/camptothecin viability": -0.358, "Outcome": "inactive"}
{"target gene": "RNF220 (GeneID 55182)", "reagent no.": 2, "log2 vehicle/camptothecin viability": -0.757, "Outcome": "inactive"}
{"target gene": "RNF220 (GeneID 55182)", "reagent no.": 3, "log2 vehicle/camptothecin viability": -0.315, "Outcome": "inactive"}
{"target gene": "PPME1 (GeneID 51400)", "reagent no.": 1, "log2 vehicle/camptothecin viability": -0.0109, "Outcome": "inactive"}
{"target gene": "PPME1 (GeneID 51400)", "reagent no.": 2, "log2 vehicle/camptothecin viability": -0.167, "Outcome": "inactive"}
{"target gene": "PPME1 (GeneID 51400)", "reagent no.": 3, "log2 vehicle/camptothecin viability": 0.0552, "Outcome": "inactive"}
{"target gene": "PPME1 (GeneID 51400)", "reagent no.": 4, "log2 vehicle/camptothecin viability": -0.301, "Outcome": "inactive"}
{"target gene": "GRIP1 (GeneID 23426)", "reagent no.": 1, "log2 vehicle/camptothecin viability": -0.0772, "Outcome": "inactive"}
{"target gene": "GRIP1 (GeneID 23426)", "reagent no.": 2, "log2 vehicle/camptothecin viability": -0.577, "Outcome": "inactive"}
{"target gene": "GRIP1 (GeneID 23426)", "reagent no.": 3, "log2 vehicle/camptothecin viability": -0.162, "Outcome": "inactive"}
{"target gene": "SELE (GeneID 6401)", "reagent no.": 1, "log2 vehicle/camptothecin viability": -0.206, "Outcome": "inactive"}
{"target gene": "SELE (GeneID 6401)", "reagent no.": 2, "log2 vehicle/camptothecin viability": -0.604, "Outcome": "inactive"}
{"target gene": "SELE (GeneID 6401)", "reagent no.": 3, "log2 vehicle/camptothecin viability": 0.0496, "Outcome": "inactive"}
{"target gene": "SELE (GeneID 6401)", "reagent no.": 4, "log2 vehicle/camptothecin viability": 0.0489, "Outcome": "inactive"}
{"target gene": "TAX1BP1 (GeneID 8887)", "reagent no.": 1, "log2 vehicle/camptothecin viability": -0.584, "Outcome": "inactive"}
{"target gene": "TAX1BP1 (GeneID 8887)", "reagent no.": 2, "log2 vehicle/camptothecin viability": -0.0653, "Outcome": "inactive"}
{"target gene": "TAX1BP1 (GeneID 8887)", "reagent no.": 3, "log2 vehicle/camptothecin viability": -0.214, "Outcome": "inactive"}
{"target gene": "TAX1BP1 (GeneID 8887)", "reagent no.": 4, "log2 vehicle/camptothecin viability": -0.289, "Outcome": "inactive"}
{"target gene": "FMR1 (GeneID 2332)", "reagent no.": 1, "log2 vehicle/camptothecin viability": 0.137, "Outcome": "inactive"}
{"target gene": "FMR1 (GeneID 2332)", "reagent no.": 2, "log2 vehicle/camptothecin viability": -0.416, "Outcome": "inactive"}
{"target gene": "FMR1 (GeneID 2332)", "reagent no.": 3, "log2 vehicle/camptothecin viability": -0.275, "Outcome": "inactive"}
{"target gene": "FMR1 (GeneID 2332)", "reagent no.": 4, "log2 vehicle/camptothecin viability": -0.195, "Outcome": "inactive"}
